# Source: patent publication US3994890A, “1-Aminoalkyl, 3-phenyl indazoles” (Chugai Seiyaku Kabushiki Kaisha, priority 1974, dated 1976)
# At least one read-out could not be matched to a standard name with certainty.
# System: reserpine-treated ddY Strain male mice
# Assay: Anti-reserpine activity (rectal temperature of reserpine-treated mice)
# Assay type: in vivo, mouse (ddY Strain)
# Settings: mouse; 100 mg/kg oral, 4 hours after 5 mg/kg i.p. reserpine; rectal temperature 1 hour and 3 hours after sample; imipramine as control drug
smiles,measurement,value
"CNCCCN1c2ccccc2CCc2ccccc21 [desipramine, reference compound]",Anti-reserpine activity (effect on rectal temperature as ratio with imipramine),1.0
